Data as given in PubChem BioAssay AID1671195 (Yale University, 2021)
Purpose: 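Genes whose knockdown alters LDL uptake in liver cancer cells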 (primary screen). Cell system: human Huh7 hepatoma cells. Reagent: siRNA pool against human genes, 18 nM. Time to read-out: about 2 to 2.5 days of knockdown, then 8 h LDL uptake. Conditions: DiI-labelled LDL at 30 µg/ml for 8 h, in lipoprotein-deficient serum medium. Detection: 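Per-cell DiI-LDL intensity by automated imaging; well means scaled to the plate median and given as a robust z-score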. Reading the numbers: robust z-score: higher = more LDL uptake after knockdown. Active means: 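a gene counts as active if at least two replicate z-scores exceed ±2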.
The whole screen tested about 22,000 reagents; shown is a random part of them. Of all reagents, about 1,510 (6.9%) got an active call. 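Active includes knockdowns raising or lowering LDL uptake; positive z-scores mean more uptake, negative mean less.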 Unmarked entries are inactive. Reagent sequences are not shown.

NOG (noggin) → robust z-score, replicate 1: 0.158; robust z-score, replicate 2: -0.121; robust z-score, replicate 3: -0.642
STIP1 (stress induced phosphoprotein 1) → robust z-score, replicate 1: -0.345; robust z-score, replicate 2: 0.98; robust z-score, replicate 3: -1.3
NCF4 (neutrophil cytosolic factor 4) → robust z-score, replicate 1: -0.234; robust z-score, replicate 2: -0.584; robust z-score, replicate 3: -0.684
LOC388337 (retired record) → robust z-score, replicate 1: 2.39 (active); robust z-score, replicate 2: 2.27; robust z-score, replicate 3: 2.2
STARD7-AS1 (STARD7 antisense RNA 1) → robust z-score, replicate 1: -0.5; robust z-score, replicate 2: -0.682; robust z-score, replicate 3: -0.778
PTGER1 (prostaglandin E receptor 1) → robust z-score, replicate 1: -0.449; robust z-score, replicate 2: 0.153; robust z-score, replicate 3: -0.0681
CHN2 (chimerin 2) → robust z-score, replicate 1: -0.99; robust z-score, replicate 2: -0.781; robust z-score, replicate 3: -0.475
NIPAL2 (NIPA like domain containing 2) → robust z-score, replicate 1: -0.357; robust z-score, replicate 2: -0.0175; robust z-score, replicate 3: -0.391
LOC440554 (retired record) → robust z-score, replicate 1: 1.85; robust z-score, replicate 2: 1.43; robust z-score, replicate 3: 2.05
SSX6P (SSX family member 6, pseudogene) → robust z-score, replicate 1: -0.925; robust z-score, replicate 2: -0.782; robust z-score, replicate 3: -0.996
RHOH (ras homolog family member H) → robust z-score, replicate 1: 1.4; robust z-score, replicate 2: 0.908; robust z-score, replicate 3: 2.18
YWHAEP5 → robust z-score, replicate 1: -0.0517; robust z-score, replicate 2: 0.483; robust z-score, replicate 3: 0.274

Targets above whose gene name begins with S or s (3):
STIP1 (stress induced phosphoprotein 1) → robust z-score, replicate 1: -0.345; robust z-score, replicate 2: 0.98; robust z-score, replicate 3: -1.3
STARD7-AS1 (STARD7 antisense RNA 1) → robust z-score, replicate 1: -0.5; robust z-score, replicate 2: -0.682; robust z-score, replicate 3: -0.778
SSX6P (SSX family member 6, pseudogene) → robust z-score, replicate 1: -0.925; robust z-score, replicate 2: -0.782; robust z-score, replicate 3: -0.996
